# Measurements reported in PubChem BioAssay AID1259308 (NCATS, 2017)
# Purpose: 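Genes whose loss raises luciferase production in HEK293 cells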 (primary screen)
# System: human HEK293 embryonic kidney cells stably expressing firefly luciferase (HEK-CMV-Luc2-Hygro)
# Knock-down reagent: single siRNA against human genes, 0.8 pmol siRNA per well
# Duration: 72 h
# Measurement: 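Luciferase light (ONE-Glo) measured on one replicate plate set and viability (CellTiter-Glo) on the other, scaled to a negative control siRNA, with robust z-scores and luciferase per cell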
# Direction: total luciferase, z-score and total luciferase, % of control: higher = more reporter protein produced; luciferase per cell, z-score: higher = more reporter output per viable cell; viable cells, % of control: higher = more viable cells
# Call rule: 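Active when the median/MAD z-score for overall luciferase is greater than 3; a gene was taken forward for validation with new siRNAs if at least two of its three siRNAs passed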
# Calls: active = raised luciferase; inactive = no rise
# Here is a random part of about 59,000 deposited reagents. About 1,510 of all reagents (2.6%) were called active. 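Calls use total luciferase alone and ignore viability, so some active siRNAs may act by altering cell number.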 Unmarked entries are inactive. The numbers tell different reagents against one gene apart.
Target gene,reagent,"total luciferase, z-score","total luciferase, % of control","luciferase per cell, z-score","viable cells, % of control"
TERF2 (GeneID 7014),1,0.928,100,0.303,104
TERF2 (GeneID 7014),2,0.233,86.5,-0.314,105
TERF2 (GeneID 7014),3,0.153,84.9,0.148,91.3
NLRX1 (GeneID 79671),1,-1.11,59.8,-0.376,73.8
NLRX1 (GeneID 79671),2,-1.26,56.8,0.162,60.8
NLRX1 (GeneID 79671),3,-1.2,57.9,-1.3,91.2
SOX5 (GeneID 6660),1,1.46,111,1.33,87.3
SOX5 (GeneID 6660),2,-0.0386,81.1,-0.795,112
SOX5 (GeneID 6660),3,0.373,89.3,-0.745,121
MPLKIP (GeneID 136647),1,-1.34,55.2,-0.979,79.9
MPLKIP (GeneID 136647),2,1.92,120,1.42,92.2
MPLKIP (GeneID 136647),3,-0.834,65.3,-0.51,83.5
VXN (GeneID 254778),1,1.92,120,2.06,78
VXN (GeneID 254778),2,2.63,134,2.27,82.5
VXN (GeneID 254778),3,0.0353,82.6,-0.132,95.6
LHX4 (GeneID 89884),1,1.26,107,0.236,112
LHX4 (GeneID 89884),2,-0.183,78.3,-0.494,99.6
LHX4 (GeneID 89884),3,-0.0414,81.1,-0.0746,92.4
IL26 (GeneID 55801),1,4.46 (active),171,3.41,77.7
IL26 (GeneID 55801),2,0.344,88.7,0.209,93.9
IL26 (GeneID 55801),3,0.693,95.7,0.566,92.1
PRG3 (GeneID 10394),1,-0.891,64.2,-1.14,96.8
PRG3 (GeneID 10394),2,1.01,102,1.63,74.2
PRG3 (GeneID 10394),3,0.12,84.3,-0.276,101
